Experimental data from PubChem BioAssay.
The other results are listed elsewhere or left out. Measured potencies and affinities stand elsewhere. Entries without a call are filed as inconclusive in the source.

Legend:
[1] = Drosophila SCA1 whole organism dose response for polyglutamine toxicity reduction (AID 1595); conditions: Drosophila SCA1 polyglutamine model, at 1 µM, stronger effect = higher value
[2] = PubChem AID 1597; conditions: Drosophila SCA1 polyglutamine model, at 1 µM, stronger effect = higher value

SMILES	suppression of toxicity [1]	suppression of toxicity [2]
C[C@@H]1OC(Oc2c(-c3ccc(O)c(O)c3)oc3cc(O)cc(O)c3c2=O)[C@H](O)[C@H](O)[C@H]1O (some centres undefined)	0	2.15
CC(Cc1cccc(C(F)(F)F)c1)NCCOC(=O)c1ccccc1 (centres undefined)	4.29	10
Nc1ccn(C2O[C@H](CO)[C@@H](O)[C@@H]2O)c(=O)n1 (some centres undefined)	1.43	6.43
O=c1ccn([C@@H]2O[C@H](COP(=O)(O)OP(=O)(O)OP(=O)(O)O)[C@@H](O)[C@H]2O)c(=O)[nH]1	4.29	5.71
CN1C(CC(=O)c2ccccc2)CCCC1CC(O)c1ccccc1 (centres undefined)	0	10
CC(N)C(O)c1cccc(O)c1 (centres undefined)	1.43	1.43
C[C@H]1CC2C([C@@H](O)C[C@@]3(C)C2CC[C@]3(O)C(=O)CO)[C@@]2(C)C=CC(=O)C=C12 (some centres undefined)	4.29	5.71
O=C(O)CCCCC1CCSS1 (centres undefined)	1.43	2.15
CN=C(NC#N)NCCSCc1nc[nH]c1C	0	0.715
O=C(O)C1CCCNC1 (centres undefined)	7.14	9.29
CC(=O)O[C@H]1C(=O)[C@@]2(C)C([C@H](OC(=O)c3ccccc3)[C@]3(O)C[C@H](OC(=O)[C@H](O)[C@@H](NC(=O)c4ccccc4)c4ccccc4)C(C)=C1C3(C)C)[C@]1(OC(C)=O)CO[C@@H]1C[C@@H]2O (some centres undefined)	2.85	2.86
CC1CCC(NC(=O)N(CCCl)N=O)CC1 (centres undefined)	10	12.9
O=c1cc(-c2ccccc2)oc2cc(O)cc(O)c12	1.43	2.86
CCCCC(=O)O[C@H]1CCC2C3CCc4cc(O)ccc4C3CC[C@@]21C (some centres undefined)	0	7.14
CC(C)C(=O)Nc1ccc([N+](=O)[O-])c(C(F)(F)F)c1	0	12.1
NC12CC3CC(CC(C3)C1)C2	0	6.42
CCCN1C[C@H](CSC)C[C@@H]2c3cccc4[nH]cc(c34)C[C@H]21	0	2.85
CCN(CCO)CCCC(C)Nc1ccnc2cc(Cl)ccc12 (centres undefined)	0	0.715
CNCCc1ccccn1	0	6.43
C=C1C(=O)O[C@@H]2C3OC3(C)CC/C=C(\C)CC[C@@H]12 (some centres undefined)	7.14	0.715
CCC(C)CCCCC(=O)NC(CCN)C(=O)NC(C(=O)NC(CCN)C(=O)NC1CCNC(=O)C(C(C)O)NC(=O)C(CCN)NC(=O)C(CCN)NC(=O)C(CC(C)C)NC(=O)C(Cc2ccccc2)NC(=O)C(CCN)NC1=O)C(C)O (centres undefined)	2.85	5
CCCC(=O)Nc1ccc(OCC(O)CNC(C)C)c(C(C)=O)c1 (centres undefined)	0	2.15

A draw from above in order of molecular weight, rising.
SMILES	suppression of toxicity [1]	suppression of toxicity [2]
O=C(O)C1CCCNC1 (centres undefined)	7.14	9.29
CC(C)C(=O)Nc1ccc([N+](=O)[O-])c(C(F)(F)F)c1	0	12.1
CCCC(=O)Nc1ccc(OCC(O)CNC(C)C)c(C(C)=O)c1 (centres undefined)	0	2.15
